The values that follow come from patent US8747830B2, “Wound repair composition and method” (Queensland University of Technology, priority 2007, dated 2014).

In this experiment the test system is MMP's (particularly MMP-9) in chronic wound fluid. The following applies: inhibitor 2 mM, 37° C., 24 hours; % of untreated control remaining.

For `NCCCC(O)(P(=O)(O)O)P(=O)(O)O` [alendronate, reference compound], the “type I collagen degradation relative to that seen in the untreated control (densitometry, FIG. 4)” value is at most 10%.
